Drawing on PMC12973532, this text covers binding for four molecules.

Sequences of proteins named here, by UniProt entry; tags and fusion partners are left off.
UniProt O00264: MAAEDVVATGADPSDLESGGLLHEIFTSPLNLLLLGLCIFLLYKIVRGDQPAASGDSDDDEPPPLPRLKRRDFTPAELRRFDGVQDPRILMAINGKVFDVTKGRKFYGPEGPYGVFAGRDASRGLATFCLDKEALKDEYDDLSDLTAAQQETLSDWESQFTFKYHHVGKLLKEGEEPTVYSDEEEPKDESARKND

No constants are given. Whether binding was seen depends on the method and setting. In cells and extracts the contact can be indirect. Here binding means that the protein was enriched with, or labelled near, the bait; the list need not be complete.

In experiment [1] the target is FLAG-tagged PGRMC1 (human progesterone receptor membrane component 1) (human) (UniProt O00264). Kind of experiment: affinity purification with mass spectrometry; FLAG-PGRMC1 stably expressed in HEK293T cells as bait; isolated mitochondria lysed, affinity purification by FLAG; prey filtered with CRAPome, fold-change threshold 2; empty-vector cells as control.
Experiment [2] shares this target. Kind of experiment: affinity purification with mass spectrometry; FLAG-PGRMC1 stably expressed in HepG2 cells as bait; isolated mitochondria lysed, affinity purification by FLAG; prey filtered with CRAPome, fold-change threshold 1.5; empty-vector cells as control.

B1: RPN1 (human) (protein, UniProt P04843 24-607)
chain: ASSEAPPLINEDVKRTVDLSSHLAKVTAEVVLAHLGGGSTSRATSFLLALEPELEARLAHLGVQVKGEDEEENNLEVRETKIKGKSGRFFTVKLPVALDPGAKISVIVETVYTHVLHPYPTQITQSEKQFVVFEGNHYFYSPYPTKTQTMRVKLASRNVESYTKLGNPTRSEDLLDYGPFRDVPAYSQDTFKVHYENNSPFLTITSMTRVIEVSHWGNIAVEENVDLKHTGAVLKGPFSRYDYQRQPDSGISSIRSFKTILPAAAQDVYYRDEIGNVSTSHLLILDDSVEMEIRPRFPLFGGWKTHYIVGYNLPSYEYLYNLGDQYALKMRFVDHVFDEQVIDSLTVKIILPEGAKNIEIDSPYEISRAPDELHYTYLDTFGRPVIVAYKKNLVEQHIQDIVVHYTFNKVLMLQEPLLVVAAFYILFFTVIIYVRLDFSITKDPAAEARMKVACITEQVLTLVNKRIGLYRHFDETVNRYKQSRDISTLNSGKKSLETEHKALTSEIALLQSRLKTEGSDLCDRVSEMQKLDAQVKELVLKSAVEAERLVAGKLKKDTYIENEKLISGKRQELVTKIDHILDAL
Take B1: the binding entry in experiment [1] and in experiment [2] was “binds” throughout.

B2: BDH1 (human) (protein, UniProt Q02338 47-343)
chain: ASAAEPVGSKAVLVTGCDSGFGFSLAKHLHSKGFLVFAGCLMKDKGHDGVKELDSLNSDRLRTVQLNVCSSEEVEKVVEIVRSSLKDPEKGMWGLVNNAGISTFGEVEFTSLETYKQVAEVNLWGTVRMTKSFLPLIRRAKGRVVNISSMLGRMANPARSPYCITKFGVEAFSDCLRYEMYPLGVKVSVVEPGNFIAATSLYSPESIQAIAKKMWEELPEVVRKDYGKKYFDEKIAKMETYCSSGSTDTSPVIDAVTHALTATTPYTRYHPMDYYWWLRMQIMTHLPGAISDMIYIR
For the molecule B2, the binding entry in experiment [1] and in experiment [2] was “binds” throughout.

B3: TBRG4 (human) (protein, UniProt Q969Z0 108-631)
chain: SHLLSEKPEDKGLLIQDAHFHQLLCLLNSQIASVWHGTLSKLLGSLYALGIPKASKELQSVEQEVRWRMRKLKYKHLAFLAESCATLSQEQHSQELLAELLTHLERRWTEIEDSHTLVTVMMKVGHLSEPLMNRLEDKCLELVEHFGPNELRKVLVMLAAQSRRSVPLLRAISYHLVQKPFSLTKDVLLDVAYAYGKLSFHQTQVSQRLATDLLSLMPSLTSGEVAHCAKSFALLKWLSLPLFEAFAQHVLNRAQDITLPHLCSVLLAFARLNFHPDQEDQFFSLVHEKLGSELPGLEPALQVDLVWALCVLQQAREAELQAVLHPEFHIQFLGGKSQKDQNTFQKLLHINATALLEYPEYSGPLLPASAVAPGPSALDRKVTPLQKELQETLKGLLGSADKGSLEVATQYGWVLDAEVLLDSDGEFLPVRDFVAPHLAQPTGSQSPPPGSKRLAFLRWEFPNFNSRSKDLLGRFVLARRHIVAAGFLIVDVPFYEWLELKSEWQKGAYLKDKMRKAVAEELAK
Consider B3, for which the binding result in experiment [1] and in experiment [2] was “binds” throughout.

B4: TMEM214 (human) (protein, UniProt Q6NUQ4 1-689)
chain: MATKTAGVGRWEVVKKGRRPGVGAGAGGRGGGRNRRALGEANGVWKYDLTPAIQTTSTLYERGFENIMKRQNKEQVPPPAVEPKKPGNKKQPKKVATPPNQNQKQGRFRSLEEALKALDVADLQKELDKSQSVFSGNPSIWLKDLASYLNYKLQAPLSEPTLSQHTHDYPYSLVSRELRGIIRGLLAKAAGSLELFFDHCLFTMLQELDKTPGESLHGYRICIQAILQDKPKIATANLGKFLELLRSHQSRPAKCLTIMWALGQAGFANLTEGLKVWLGIMLPVLGIKSLSPFAITYLDRLLLMHPNLTKGFGMIGPKDFFPLLDFAYMPNNSLTPSLQEQLCQLYPRLKVLAFGAKPDSTLHTYFPSFLSRATPSCPPEMKKELLSSLTECLTVDPLSASVWRQLYPKHLSQSSLLLEHLLSSWEQIPKKVQKSLQETIQSLKLTNQELLRKGSSNNQDVVTCDMACKGLLQQVQGPRLPWTRLLLLLLVFAVGFLCHDLRSHSSFQASLTGRLLRSSGFLPASQQACAKLYSYSLQGYSWLGETLPLWGSHLLTVVRPSLQLAWAHTNATVSFLSAHCASHLAWFGDSLTSLSQRLQIQLPDSVNQLLRYLRELPLLFHQNVLLPLWHLLLEALAWAQEHCHEACRGEVTWDCMKTQLSEAVHWTWLCLQDITVAFLDWALALISQQ
For the molecule B4, the binding entry in experiment [1] and in experiment [2] was “binds” each time.
